Source: article PMC7515859
No constants are given. Whether binding was seen depends on the method and setting. In cells and extracts the contact can be indirect. Some entries that bind do so weakly or less than the wild type.

Protein sequences, listed by entry. Tags and fused reporters are not part of them.
UniProt P50637: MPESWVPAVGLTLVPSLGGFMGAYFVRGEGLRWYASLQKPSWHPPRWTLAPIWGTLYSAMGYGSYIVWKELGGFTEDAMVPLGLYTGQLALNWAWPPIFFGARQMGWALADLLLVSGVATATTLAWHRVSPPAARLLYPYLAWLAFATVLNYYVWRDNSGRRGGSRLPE

Columns and labels:
[1] = target: Translocator protein 18 kDa (TSPO) (mouse (endogenous in primary microglia)) (UniProt P50637); assay: proximity ligation; Duolink PLA in fixed (4% PFA), permeabilised (0.2% Triton X-100) primary mouse microglia; goat anti-TSPO with mouse anti-gp91^phox, mouse anti-p22^phox or rabbit anti-VDAC; vehicle or LPS 18 h (no effect of LPS seen); single-antibody and no-primary controls
[2] = target: Translocator protein 18 kDa (TSPO) (mouse (endogenous in primary microglia)) (UniProt P50637); assay: co-IP; primary mouse microglia lysate (0.5% NP-40, 150 mM KCl, 2.5 mM EDTA, 10 mM Tris pH 7.4), pre-cleared; IP with anti-TSPO antibody (ab109497) overnight at 4 °C, Protein G Dynabeads; Western blot; cells treated 18 h with vehicle or 100 ng/mL LPS (less gp91^phox and p22^phox co-precipitated after LPS, VDAC unchanged); no-antibody IP as negative control

Row | binding [1] | binding [2] | Binder
1 | binds | binds | gp91^phox (NOX2 subunit) (protein, UniProt Q61093 1-570) MGNWAVNEGLSIFVILVWLGLNVFLFINYYKVYDDGPKYNYTRKLLGSALALARAPAACLNFNCMLILLPVCRNLLSFLRGSSACCSTRIRRQLDRNLTFHKMVAWMIALHTAIHTIAHLFNVEWCVNARVGISDRYSIALSDIGDNENEEYLNFAREKIKNPEGGLYVAVTRLAGITGIVITLCLILIITSSTKTIRRSYFEVFWYTHHLFVIFFIGLAIHGAERIVRGQTAESLEEHNLDICADKIEEWGKIKECPVPKFAGNPPMTWKWIVGPMFLYLCERLVRFWRSQQKVVITKVVTHPFKTIELQMKKKGFKMEVGQYIFVKCPKVSKLEWHPFTLTSAPEEDFFSIHIRIVGDWTEGLFNACGCDKQEFQDAWKLPKIAVDGPFGTASEDVFSYEVVMLVGAGIGVTPFASILKSVWYKYCDNATSLKLKKIYFYWLCRDTHAFEWFADLLQLLETQMQERNNANFLSYNIYLTGWDESQANHFAVHHDEEKDVITGLKQKTLYGRPNWDNEFKTIASEHPNTTIGVFLCGPEALAETLSKQSISNSESGPRGVHFIFNKENF
2 | binds | binds | p22^phox (NOX2 subunit) (protein, UniProt Q61462 1-192) MGQIEWAMWANEQALASGLILITGGIVATAGRFTQWYFGAYSIAAGVLICLLEYPRGKRKKGSTMERCGQKYLTSVVKLFGPLTRNYYVRAALHFLLSVPAGFLLATILGTVCLAIASVIYLLAAIRGEQWTPIEPKPKERPQVGGTIKQPPTNPPPRPPAEVRKKPSEGEEEAASAGGPQVNPMPVTDEVV
